PubChem BioAssay AID652243, Drosophila RNAi Screening Center, 2013

Test: 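Fly regulators of androgen-dependent reporter output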 (primary screen)
Cells: Drosophila S2R+ cells
Knock-down reagent: long dsRNA against Drosophila genes
Timing: 72 h (48 h, then 24 h hormone)
Challenge: synthetic androgen R1881 at 10 nM for 24 h
Read-out: 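Per-well raw luminescence of the androgen-driven firefly reporter and of the Renilla control, two replicates each, without normalisation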
Direction: firefly reporter light: higher = more light from androgen-responsive reporter; Renilla control light: higher = more constitutive control signal (cell number, transfection)
Call rule: 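Across duplicate plates, a knock-down whose log firefly/Renilla ratio shifted a set fold down or up from the GFP/LacZ control mean was a hit; the downward cut appears as both 1.5 and 3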
Calls: active = hit: reporter lowered or raised; inactive = no hit
In all, the deposit lists about 24,000 reagents; this is an unselected part of those with a known target gene and a result. Over the whole deposit, 246 (1%) are marked active. 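Plates not normalised; calls are printed but the firefly/Renilla ratio behind them is not deposited; fold cut for lowering reported inconsistently.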 The raw values are shown without normalisation. Names joined by + are all predicted targets of the reagent. The record does not give: the amount of reagent.

| gene knocked down | DRSC id | firefly reporter light, replicate 1 | firefly reporter light, replicate 2 | Renilla control light, replicate 1 | Renilla control light, replicate 2 | activity call |
| --- | --- | --- | --- | --- | --- | --- |
| CG3040 | DRSC22486 | 4.45e5 | 5.52e5 | 6.13e5 | 8.59e5 | inactive |
| foxo (forkhead box, sub-group O) | DRSC13017 | 5468 | 5932 | 25416 | 29068 | active |
| foxo (forkhead box, sub-group O) | DRSC15463 | 1.51e5 | 1.19e5 | 1.01e6 | 1.22e6 | inactive |
| CG32161 | DRSC22128 | 2.57e5 | 2.85e5 | 1.33e6 | 1.07e6 | inactive |
| CG12398 | DRSC19454 | 2.77e5 | 2.92e5 | 2.30e6 | 2.41e6 | inactive |
| CG14340 | DRSC00370 | 1.04e5 | 1.12e5 | 6.57e5 | 8.75e5 | inactive |
| pix (pixie) | DRSC10533 | 2.03e5 | 1.88e5 | 2.14e6 | 1.52e6 | inactive |
| Syx5 (Syntaxin 5) | DRSC03432 | 1.07e6 | 1.13e6 | 1.70e6 | 1.67e6 | inactive |
| CG2747 | DRSC15450 | 80438 | 1.16e5 | 1.66e6 | 1.77e6 | inactive |
| CG13131 | DRSC23253 | 6.13e5 | 5.72e5 | 1.68e6 | 1.37e6 | inactive |
| CG32235 | DRSC23257 | 6.84e5 | 8.00e5 | 1.03e6 | 1.44e6 | inactive |
| Syb (Synaptobrevin) | DRSC07559 | 7.65e5 | 6.00e5 | 2.01e6 | 1.95e6 | inactive |
| Syb (Synaptobrevin) | DRSC25904 | 4.42e5 | 3.72e5 | 1.16e6 | 9.98e5 | inactive |
| CG7275 | DRSC10796 | 1.04e6 | 9.54e5 | 1.77e6 | 1.97e6 | inactive |
| RpS15Ab + RpS15Aa | DRSC06129 | 2.14e5 | 1.81e5 | 7.77e5 | 1.07e6 | inactive |
| RpS15Ab + RpS15Aa | DRSC19831 | 3.60e5 | 3.04e5 | 1.62e6 | 1.60e6 | inactive |
| CG9588 | DRSC16504 | 1.58e5 | 2.05e5 | 2.38e6 | 2.44e6 | inactive |
| CG31819 | DRSC01532 | 1.22e5 | 2.46e5 | 4.41e5 | 5.94e5 | inactive |
| CG31819 | DRSC27735 | 2.81e5 | 1.99e5 | 6.32e5 | 7.06e5 | inactive |
| dpr18 (defective proboscis extension response 18) | DRSC19606 | 8.52e5 | 7.03e5 | 3.40e6 | 2.61e6 | inactive |
| l(3)72Dn (lethal (3) 72Dn) | DRSC10468 | 36134 | 38077 | 4.37e5 | 3.71e5 | inactive |
| Ir68a (Ionotropic receptor 68a) | DRSC10599 | 3.32e5 | 2.58e5 | 2.55e6 | 2.17e6 | inactive |
| Or71a (Odorant receptor 71a) | DRSC11244 | 97901 | 1.05e5 | 1.47e6 | 1.28e6 | inactive |
| CG12491 + CG34105 | DRSC04008 | 1.49e5 | 2.27e5 | 6.69e5 | 7.21e5 | inactive |
| CG12491 + CG34105 | DRSC04124 | 4.03e5 | 4.37e5 | 2.04e6 | 2.57e6 | inactive |
| CG12491 + CG34105 | DRSC26465 | 2.98e5 | 2.39e5 | 7.01e5 | 6.28e5 | inactive |
| CG18537 | DRSC06764 | 1.06e5 | 2.33e5 | 1.69e6 | 1.69e6 | inactive |
| CG18537 | DRSC29847 | 1.11e6 | 9.03e5 | 1.65e6 | 1.71e6 | inactive |
| CG31517 | DRSC13010 | 99734 | 1.04e5 | 1.81e5 | 1.88e5 | inactive |
| Teh1 (tipE homolog 1) | DRSC14544 | 71548 | 1.26e5 | 1.30e6 | 1.92e6 | inactive |
| Pdxk (Pyridoxal kinase) | DRSC10419 | 1.07e5 | 77245 | 1.78e6 | 1.19e6 | inactive |
| Pdxk (Pyridoxal kinase) | DRSC37063 | – | – | – | – | inactive |
| Dph4 (Diphthamide biosynthesis 4) | DRSC12318 | 74490 | 58128 | 1.14e6 | 8.71e5 | inactive |
| Diedel | DRSC14317 | 1.66e5 | 2.13e5 | 2.31e6 | 3.12e6 | inactive |
| Diedel | DRSC27523 | 2.69e5 | 3.11e5 | 6.98e5 | 1.01e6 | inactive |
| CG15537 | DRSC15073 | 1.85e5 | 2.17e5 | 1.31e6 | 2.42e6 | inactive |
| CG15537 | DRSC25589 | 6.90e5 | 6.49e5 | 7.96e5 | 8.87e5 | inactive |
| Pka-C3 (Protein kinase, cAMP-dependent, catalytic subunit 3) | DRSC09402 | 2.46e5 | 2.17e5 | 4.31e5 | 4.01e5 | inactive |
| Pka-C3 (Protein kinase, cAMP-dependent, catalytic subunit 3) | DRSC11254 | 60653 | 33890 | 8.84e5 | 5.44e5 | inactive |
| Pka-C3 (Protein kinase, cAMP-dependent, catalytic subunit 3) | DRSC25050 | 4.47e5 | 3.25e5 | 5.48e5 | 4.63e5 | inactive |
| ey (eyeless) | DRSC17173 | 2.13e5 | 1.52e5 | 3.81e6 | 1.44e6 | inactive |
| ey (eyeless) | DRSC26309 | 2.83e5 | 2.83e5 | 4.76e5 | 4.28e5 | inactive |
| Gcn2 + PNPase | DRSC36724 | – | – | – | – | inactive |
| nrm (neuromusculin) | DRSC11599 | 1.40e5 | 1.85e5 | 4.34e5 | 4.24e5 | inactive |
| nrm (neuromusculin) | DRSC11897 | 1.46e5 | 1.48e5 | 1.65e6 | 1.80e6 | inactive |
| nrm (neuromusculin) | DRSC38832 | 1.03e6 | 8.53e5 | 2.56e6 | 1.67e6 | inactive |
| CG32110 | DRSC09220 | 1.64e5 | 2.10e5 | 3.59e5 | 4.94e5 | inactive |
| Ir76a (Ionotropic receptor 76a) | DRSC10987 | 37876 | 48624 | 4.65e5 | 4.40e5 | inactive |
| S-Lap8 (Sperm-Leucylaminopeptidase 8) | DRSC06870 | 4.47e5 | 5.59e5 | 2.44e6 | 2.50e6 | inactive |
| S-Lap8 (Sperm-Leucylaminopeptidase 8) | DRSC21372 | 6.27e5 | 6.78e5 | 2.22e6 | 2.87e6 | inactive |
| S-Lap8 (Sperm-Leucylaminopeptidase 8) | DRSC29560 | 2.61e5 | 3.14e5 | 7.18e5 | 7.18e5 | inactive |
| ACXA (Adenylyl cyclase X A) | DRSC00844 | 1.95e5 | 3.10e5 | 1.77e6 | 1.57e6 | inactive |
| ACXA (Adenylyl cyclase X A) | DRSC25338 | 1.12e6 | 9.58e5 | 1.37e6 | 1.15e6 | inactive |
| CG32719 | DRSC17525 | 8.48e5 | 5.56e5 | 1.25e6 | 1.04e6 | inactive |
| CG32719 | DRSC26765 | 3.28e5 | 3.42e5 | 4.57e5 | 6.03e5 | inactive |
| Nop60B (Nucleolar protein at 60B) | DRSC04627 | 1.03e6 | 1.03e6 | 1.52e6 | 1.57e6 | inactive |
| loco (locomotion defects) | DRSC15202 | 1.64e5 | 2.04e5 | 2.59e6 | 2.57e6 | inactive |
| loco (locomotion defects) | DRSC16989 | 38508 | 45753 | 2.99e5 | 2.74e5 | inactive |
| loco (locomotion defects) | DRSC27695 | 1.73e5 | 2.04e5 | 2.70e5 | 5.96e5 | inactive |
| CG12637 | DRSC17845 | 3.39e5 | 3.83e5 | 2.53e6 | 3.29e6 | inactive |
| CG12637 | DRSC28060 | 3.18e5 | 2.65e5 | 1.09e6 | 1.03e6 | inactive |
| egl (egalitarian) | DRSC23380 | 8.11e5 | 8.52e5 | 4.78e5 | 4.44e5 | inactive |
| CG13484 | DRSC10026 | 1.85e5 | 1.37e5 | 9.01e5 | 1.41e6 | inactive |
| CG13484 | DRSC26663 | 2.23e5 | 3.30e5 | 4.04e5 | 4.54e5 | inactive |
| Vkor (Vitamin-K epoxide reductase) | DRSC37855 | 7.19e5 | 8.87e5 | 2.15e6 | 2.10e6 | inactive |
| Klp10A (Kinesin-like protein at 10A) | DRSC19601 | 60619 | 59668 | 4.80e5 | 4.91e5 | inactive |
| Klp10A (Kinesin-like protein at 10A) | DRSC24185 | 4.10e5 | 2.54e5 | 3.40e5 | 4.00e5 | inactive |
| Gr77a (Gustatory receptor 77a) | DRSC11446 | 1.47e5 | 1.09e5 | 3.81e5 | 3.68e5 | inactive |
| Gr77a (Gustatory receptor 77a) | DRSC26808 | 2.17e5 | 2.22e5 | 4.03e5 | 4.28e5 | inactive |
| CG14757 | DRSC06492 | 3.89e5 | 4.65e5 | 2.71e6 | 2.64e6 | inactive |
| CG14757 | DRSC25690 | 1.13e6 | 1.19e6 | 1.26e6 | 1.44e6 | inactive |
| CG10550 | DRSC14251 | 91813 | 1.07e5 | 6.99e5 | 7.14e5 | inactive |
| CG7573 | DRSC10884 | 2.67e5 | 2.38e5 | 2.49e6 | 1.34e6 | inactive |
| CG9072 | DRSC20147 | 2.06e5 | 3.06e5 | 2.47e6 | 2.84e6 | inactive |

7 entries already listed, arranged by “firefly reporter light, replicate 1”, low to high:
| gene knocked down | DRSC id | firefly reporter light, replicate 1 | firefly reporter light, replicate 2 | Renilla control light, replicate 1 | Renilla control light, replicate 2 | activity call |
| --- | --- | --- | --- | --- | --- | --- |
| ACXA (Adenylyl cyclase X A) | DRSC00844 | 1.95e5 | 3.10e5 | 1.77e6 | 1.57e6 | inactive |
| S-Lap8 (Sperm-Leucylaminopeptidase 8) | DRSC29560 | 2.61e5 | 3.14e5 | 7.18e5 | 7.18e5 | inactive |
| CG32719 | DRSC26765 | 3.28e5 | 3.42e5 | 4.57e5 | 6.03e5 | inactive |
| S-Lap8 (Sperm-Leucylaminopeptidase 8) | DRSC06870 | 4.47e5 | 5.59e5 | 2.44e6 | 2.50e6 | inactive |
| S-Lap8 (Sperm-Leucylaminopeptidase 8) | DRSC21372 | 6.27e5 | 6.78e5 | 2.22e6 | 2.87e6 | inactive |
| CG32719 | DRSC17525 | 8.48e5 | 5.56e5 | 1.25e6 | 1.04e6 | inactive |
| ACXA (Adenylyl cyclase X A) | DRSC25338 | 1.12e6 | 9.58e5 | 1.37e6 | 1.15e6 | inactive |
